Reference: PubChem BioAssay AID1259354 (Paczesny and Yang Labs, IUPUI and University of Michigan, 2018)
Screen size: about 78,000 compounds; about 1,800 (2.3%) were called active. This list was built around the results that the source calls inconclusive (neither active nor inactive); the mix of calls is not that of the screen. No stated cut-off is given here; in the data, active means inhibition above about 30%; inconclusive means mostly about 10% to 28%; inactive means weaker than that.

Sequences of proteins named here, by UniProt entry; tags and fusion partners are left off. A change or cut given only in a name is not applied to a line headed by its entry.
UniProt Q01638: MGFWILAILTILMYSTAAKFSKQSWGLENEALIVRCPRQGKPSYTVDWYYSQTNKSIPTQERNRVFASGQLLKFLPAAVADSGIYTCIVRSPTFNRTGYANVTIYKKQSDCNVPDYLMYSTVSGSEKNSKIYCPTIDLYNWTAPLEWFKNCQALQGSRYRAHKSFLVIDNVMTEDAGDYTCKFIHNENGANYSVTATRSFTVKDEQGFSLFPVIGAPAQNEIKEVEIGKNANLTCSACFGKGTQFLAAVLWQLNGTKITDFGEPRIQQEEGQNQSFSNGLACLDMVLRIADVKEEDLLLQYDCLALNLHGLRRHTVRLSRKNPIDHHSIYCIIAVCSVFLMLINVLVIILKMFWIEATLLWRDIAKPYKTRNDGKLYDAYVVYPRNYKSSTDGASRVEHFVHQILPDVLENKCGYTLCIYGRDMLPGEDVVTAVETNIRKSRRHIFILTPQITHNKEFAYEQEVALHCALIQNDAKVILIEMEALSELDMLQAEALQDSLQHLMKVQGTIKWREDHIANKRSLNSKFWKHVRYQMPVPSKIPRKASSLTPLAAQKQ

Target: Interleukin-1 receptor-like 1 (Homo sapiens) (UniProt Q01638)
Assay: blocks human ST2 binding to IL-33, primary screen, biochemical, AlphaLISA (AID 1259354)
Conditions: AlphaLISA ST2-Fc/biotin-IL-33 interaction, 1 h; at 17 µM, active compounds read high

Q: Which inhibition does the source give for CCSc1nnc2c(n1)OC(c1ccc3c(c1)OCO3)N(C(=O)CC)c1ccccc1-2 (stereo not given) here?
A: inconclusive: 12%

Q: O=C(Nc1cnn(-c2ccc(C(=O)N3CCOc4ccccc4C3)cc2)c1)c1cccnc1 was tested. Which inhibition did it give?
A: inactive

Q: How did the inhibition turn out when O=C1C(=Cc2cccn2-c2ccccc2)C(=O)c2ccccc21 was run?
A: active: 31%

Q: Which inhibition does the source give for COc1cc(CN2CCCCC2)ccc1O here?
A: inconclusive: 12%

Q: For Cc1cc(C)nc(NS(=O)(=O)c2ccc(NC(=O)c3sc4ccccc4c3Cl)cc2)n1, which inhibition is on record?
A: inactive

Q: For Cc1ccc(C(=O)N[C@H]2CO[C@H]3[C@@H]2OC[C@@H]3Nc2nccc(-c3ccc4c(c3)OCO4)n2)cc1, which inhibition is on record?
A: inconclusive: 14%

Q: CCCNC(=O)CSc1nc2nc(C)c(Cc3ccc(C)cc3)c(C)n2n1 was tested. Which inhibition did it give?
A: inactive

Q: COc1ccc(C2C(C(=O)OCc3ccccc3)=C(C)Nc3ncnn32)cc1 (stereo not given) was tested. Which inhibition did it give?
A: inactive

Q: CCc1[nH]c2ccc(CNC(=O)[C@@H]3CCCN3C(C)=O)cc2c1C was tested. Which inhibition did it give?
A: inactive

Q: For O=[N+]([O-])c1ccc2nc(-c3ccco3)c(-c3ccco3)nc2c1, which inhibition is on record?
A: active: 36%

Q: Which inhibition does the source give for Cn1cnnc1Sc1ccc(CN(Cc2cccnc2)C2CCCCCC2)o1 here?
A: inconclusive: 16%

Q: How did the inhibition turn out when COc1ccccc1C1NCC(c2ccc([N+](=O)[O-])cc2)O1 (stereo not given) was run?
A: inactive

Q: Which inhibition does the source give for Cc1nc(C2CCCNC2)cc(N(C)Cc2cccc3cnccc23)n1 (stereo not given) here?
A: inconclusive: 13%

Q: Which inhibition does the source give for O=C(CSc1nnc2ccccn12)Nc1cc(C(F)(F)F)ccc1Cl here?
A: inactive

Q: How did the inhibition turn out when CC(=O)Nc1ccccc1NC(=O)CN(C)Cc1nc2ccccc2n1C was run?
A: inconclusive: 15%

Q: How did the inhibition turn out when COc1cc(C2C(C#N)=C(N)OC3=C2C(=O)CC(c2ccccc2)C3)cc(OC)c1OC (stereo not given) was run?
A: inactive

Q: Which inhibition does the source give for O=C(C1CC1)N1CCc2cc(Br)cc(S(=O)(=O)NCCCN3CCCCC3)c21 here?
A: inconclusive: 18%

Q: How did the inhibition turn out when C=CCN(CC=C)S(=O)(=O)c1ccc(NC(C)=O)cc1 was run?
A: inactive

Q: Cc1nn(S(=O)(=O)c2ccc(Br)cc2)c(C)c1Sc1ccc([N+](=O)[O-])cc1 was tested. Which inhibition did it give?
A: inconclusive: 17%

Q: CCc1ccc(CNC(=O)CN2C(=O)C(C)=C(c3ccc(CC)cc3)S2(=O)=O)cc1 was tested. Which inhibition did it give?
A: inconclusive: 15%

Q: With Cc1cc(C)n(Cc2ccc(C(=O)NCCc3ccccn3)cc2)n1 as the compound, how does the inhibition read?
A: inconclusive: 17%

Q: COc1cc(C)c(CN2CCN(c3ccc([N+](=O)[O-])cc3)CC2)cc1C was tested. Which inhibition did it give?
A: active: 32%

Q: For COc1ccc([N+](=O)[O-])cc1NC(=O)C1(S(=O)(=O)c2ccc(Cl)cc2)CC1, which inhibition is on record?
A: inconclusive: 17%

Q: For COCCn1c(CNC(=O)c2cccnc2)nc2cccnc21, which inhibition is on record?
A: inactive

Q: With COc1ccc(-n2ncc3c(N4CCN(c5cccc(C)c5C)CC4)ncnc32)cc1 as the compound, how does the inhibition read?
A: inconclusive: 14%
